Assay results reported in PubChem BioAssay AID504648 (National Center for Advancing Translational Sciences (NCATS), 2011).
In all, about 390,000 compounds went through this assay and about 610 (0.16%) were called active. The shares of active, inactive and inconclusive entries below differ from those in the screen. The call rests on the fitted dose curve; in most records, active means well fitted inhibition curve with a large enough effect; inconclusive means small, poorly fitted or top-dose-only effect, or effect the other way, or another doubt; inactive means no such curve, though single readings can be large or run the other way. Potencies beside an inconclusive call are fits to weak or partial responses and may not hold up. More than one record can exist for a structure, and the calls need not agree.

experiment: Nrf2 qHTS screen for inhibitors: counterscreen for cytotoxicity; settings: A549 ARE-Fluc cells, CellTiter-Fluor viability, 18-24 h; activity change, negative = cytotoxicity: at 46 µM (top of the series)
Outline: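 A549 ARE_Fluc cells in 5% FBS OPTI-MEM were exposed to compounds in concentration-response for 18-24 h at 37 deg C. Viability was read by CellTiter-Fluor fluorescence (Ex 405/Em 525) after 30 min, before the luciferase read.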
On the % scale 0 is the no-effect control and ±100 the full control effect; potency means the concentration at half of the fitted maximal effect.

Question: With `c1ccc(CNc2nc(NCc3ccccc3)c3ccccc3n2)cc1` as the compound, how does the Potency read?
Answer: inconclusive: 29.1 µM [falling, single point]

Question: Which Potency does the source give for `CCOc1ccc(C(=O)Nc2ccc(S(=O)(=O)N(Cc3ccccc3)c3ccccc3)cc2)cc1` here?
Answer: inactive

Question: Which Potency does the source give for `O=C(Nc1ccc(N2CCN(C(=O)c3cccs3)CC2)cc1)c1cccc(F)c1` here?
Answer: inactive

Question: With `Cc1ccccc1CC(=O)Nc1ccc(C(=O)N2CCCC2)cc1` as the compound, how does the Potency read?
Answer: inactive

Question: Which Potency does the source give for `O=C1CC(=C(c2ccccc2)c2ccccc2)C(=O)N1CCCCN1CCN(c2ccccc2)CC1` here?
Answer: inconclusive: 29.1 µM [falling, single point]

Question: For `COc1ccccc1N1CCN(S(=O)(=O)c2ccc(-c3cc(C(F)(F)F)on3)s2)CC1`, which Potency is on record?
Answer: inconclusive: 29.1 µM [activator, partial curve, poor fit]

Question: With `COc1ccc(C(C(N)=O)c2ncc(C(F)(F)F)cc2Cl)cc1` (configuration not stated) as the compound, how does the Potency read?
Answer: inconclusive: 20.6 µM [activator, partial curve, poor fit]

Question: For `CCOC(=O)C[C@H]1c2ccc(C(F)(F)F)cc2S(=O)(=O)N1c1ccccc1`, which Potency is on record?
Answer: inconclusive: 5.17 µM [activator, full curve, poor fit]

Question: For `CCC(NC(=O)Nc1nnc(C(F)(F)F)s1)(C(F)(F)F)C(F)(F)F`, which Potency is on record?
Answer: active: 7.31 µM

Question: Which Potency does the source give for `COc1cccc(/C=N/Nc2nc(Nc3ccc([N+](=O)[O-])cc3)nc(N3CCCC3)n2)c1O` here?
Answer: inconclusive: 32.6 µM [falling, single point]

Question: Which activity change, negative = cytotoxicity does the source give for `CCOC(=O)N1CCN(C(=O)c2cn(CC(C)C)c(=O)c3c2c2ccccc2n3C)CC1` here?
Answer: inactive: -4.93% [at 1.84 µM]

Question: For `CCN1C(=O)/C(=C2\C=Cc3ccccc3N2CC)SC1=S`, which Potency is on record?
Answer: inconclusive: 3.26 µM [falling, partial curve, poor fit]

Question: Which Potency does the source give for `COc1ccc(CSC(=N)N)cc1[N+](=O)[O-]` here?
Answer: inconclusive: 25.9 µM [falling, single point]

Question: For `CCCOc1ccc(N2C(=O)CC(N3CCN(c4ccc([N+](=O)[O-])cc4)CC3)C2=O)cc1` (configuration not stated), which Potency is on record?
Answer: inconclusive: 29.1 µM [falling, partial curve, poor fit]

Question: With `CN(C)c1ccc(/C=C2\Oc3ccc(C#Cc4cccc(N)c4)cc3C2=O)cc1` as the compound, how does the Potency read?
Answer: inconclusive: 7.31 µM [activator, partial curve, poor fit]

Question: Which Potency does the source give for `CCC(c1nnnn1CCc1ccccc1)N(Cc1ccco1)Cc1cc2cc(C)cc(C)c2[nH]c1=O` (configuration not stated) here?
Answer: inconclusive: 32.6 µM [falling, partial curve, poor fit]

Question: Which Potency does the source give for `CC1CCCCN1CCCNC(=O)C1CCN(c2nc3ccccc3o2)CC1` (configuration not stated) here?
Answer: inconclusive: 13 µM [activator, partial curve, poor fit]

Question: For `CC(=O)N1CCN(c2ccc(NC(=O)c3ccc([N+](=O)[O-])o3)cc2Cl)CC1`, which Potency is on record?
Answer: inconclusive: 29.1 µM [falling, single point]

Question: For `O=[N+]([O-])c1ccc(Sc2nnnn2-c2ccccc2)c(Cl)c1`, which Potency is on record?
Answer: inconclusive: 18.4 µM [falling, single point]

Question: With `Cc1cccc(C)c1NC(=O)CSc1nc(COc2ccccc2)nc2ccccc12` as the compound, how does the Potency read?
Answer: inconclusive: 6.51 µM [activator, single point]

Question: For `C/C(=N\Nc1nc2ccccc2s1)c1ccc(Br)s1`, which Potency is on record?
Answer: inconclusive: 29.1 µM [falling, single point]

Question: Which Potency does the source give for `O=C1S/C(=C\c2ccc(O)c([N+](=O)[O-])c2)C(=O)N1Cc1cccc([N+](=O)[O-])c1` here?
Answer: inconclusive: 25.9 µM [falling, partial curve, poor fit]

Question: For `C/C(=N\Nc1cc(N2CCOCC2)ncn1)c1ccccc1`, which Potency is on record?
Answer: inconclusive: 29.1 µM [activator, single point]

Question: Which Potency does the source give for `O=C(Nc1ccc2c(c1)OCCO2)C(=S)NCc1ccccc1` here?
Answer: inactive

Question: With `COCCNC(=O)CSc1nc2sc(C)c(C)c2c(=O)n1-c1ccccc1` as the compound, how does the Potency read?
Answer: inconclusive: 5.17 µM [falling, partial curve, poor fit]

Question: With `CCCCNC(=O)[C@@H]1CC=C[C@@H]2CCN(Cc3ccc(Cl)c(Cl)c3)C(=O)[C@@H]21` as the compound, how does the Potency read?
Answer: inconclusive: 29.1 µM [falling, partial curve, poor fit]

Question: For `CN1CCN(CCCN2c3ccccc3Sc3ccc(Cl)cc32)CC1`, which Potency is on record?
Answer: active: 18.4 µM

Question: With `CCOc1ccc(C2C(C#N)=C(N)N3C(=C2C#N)Sc2ccccc23)cc1` (configuration not stated) as the compound, how does the Potency read?
Answer: inconclusive: 25.9 µM [activator, single point]

Question: For `CCN(CC)S(=O)(=O)c1ccc2c(c1)c(=O)c(C(=O)N1CCN(c3ccccc3)CC1)cn2C`, which Potency is on record?
Answer: inconclusive: 5.17 µM [activator, full curve]

Question: With `Cc1ccc(Cn2c(=O)n(Cc3ccc(Cl)cc3)c(=O)c3cccnc32)cc1` as the compound, how does the Potency read?
Answer: inactive

Question: For `CCOc1ccc(OCC(O)CNC2CCN(Cc3ccccc3)CC2)cc1` (configuration not stated), which Potency is on record?
Answer: inconclusive: 5.17 µM [falling, full curve]

Question: With `NS(=O)(=O)c1ccc(NC(=S)Nc2ccc(Br)c(Cl)c2)cc1` as the compound, how does the Potency read?
Answer: inconclusive: 32.6 µM [activator, partial curve, poor fit]

Question: With `Cc1cccc(NC(=O)CCN2CCN(C/C=C/c3ccccc3)CC2)c1` as the compound, how does the Potency read?
Answer: inconclusive: 29.1 µM [falling, single point]

Question: With `CC(=O)[C@]1(O)Cc2c(O)c3c(c(O)c2[C@@H](O[C@H]2C[C@H](N)[C@H](O)[C@H](C)O2)C1)C(=O)c1ccccc1C3=O` as the compound, how does the Potency read?
Answer: inconclusive: 9.2 µM [falling, partial curve]

Question: For `O=c1cnc2ccccc2n1Cc1ccc(Br)cc1`, which Potency is on record?
Answer: inactive

Question: With `Cc1ccc(N2CCN(C(=S)c3ccc(-c4cccc([N+](=O)[O-])c4)o3)CC2)cc1` as the compound, how does the Potency read?
Answer: inconclusive: 6.51 µM [activator, full curve, poor fit]

Question: For `CC(C)c1ccc(NS(=O)(=O)c2cccc3cccnc23)cc1`, which Potency is on record?
Answer: inconclusive: 0.92 µM [activator, full curve, poor fit]

Question: Which Potency does the source give for `Brc1ccc(Nc2c3c(nc4nncn24)CCC3)cc1` here?
Answer: inactive

Question: With `COc1ccc(S(=O)(=O)NC2CC(=O)N(c3cccc(F)c3)C2)cc1OC` (configuration not stated) as the compound, how does the Potency read?
Answer: inactive

Question: Which Potency does the source give for `COc1ccc(-n2c(CNc3ccc(C)cc3)nnc2SCC(=O)Nc2nc(-c3ccccc3)cs2)cc1` here?
Answer: inactive

Question: For `Brc1ccc2ncnc(Nc3ccc(N4CCOCC4)cc3)c2c1`, which Potency is on record?
Answer: inactive

Question: Which Potency does the source give for `COc1ccc2cc3cc(C(=O)NCCN4CCN(Cc5ccccc5)CC4)oc3nc2c1` here?
Answer: inconclusive: 16.4 µM [activator, partial curve, poor fit]

Question: Which Potency does the source give for `CC(C)(C)NC(=O)C[C@H]1C[C@H](C(=O)N2CCCCC2)[C@@]2(C)c3[nH]c4ccc(Cl)cc4c3CCN2C1=O` here?
Answer: inconclusive: 29.1 µM [falling, single point]

Question: Which Potency does the source give for `COc1ccc(S(=O)(=O)NCCc2sc3nc(-c4ccc(C)cc4)nn3c2C)cc1C` here?
Answer: inconclusive: 7.31 µM [falling, partial curve, poor fit]

Question: Which Potency does the source give for `Cc1cccc(C(C)(C)C)c1OCCN1CCCC1` here?
Answer: inconclusive: 3.66 µM [activator, partial curve, poor fit]

Question: Which Potency does the source give for `CCCCN1CCCc2cc(CN(CCCN3CCOCC3)C(=O)Nc3ccc(CC)cc3)ccc21` here?
Answer: inconclusive: 1.84 µM [falling, partial curve, poor fit]

Question: For `Cc1ccc(C)c(S(=O)(=O)Nc2ccc(O)cc2)c1`, which Potency is on record?
Answer: inconclusive: 20.6 µM [falling, single point]

Question: For `O=C(N/N=C/c1ccc([N+](=O)[O-])s1)c1ccccc1`, which Potency is on record?
Answer: inconclusive: 29.1 µM [falling, partial curve, poor fit]

Question: With `Cc1ccc(OCCN2CCN(C(=O)CCC(=O)Nc3nnc(C(C)C)s3)CC2)cc1` as the compound, how does the Potency read?
Answer: inconclusive: 16.4 µM [falling, partial curve, poor fit]

Question: Which Potency does the source give for `COc1ccccc1OCC(=O)N(Cc1cccs1)C1CCS(=O)(=O)C1` (configuration not stated) here?
Answer: inactive

Question: For `Nc1nc(-c2ccccn2)nc(N)c1Cc1ccc(Cl)cc1Cl`, which Potency is on record?
Answer: inconclusive: 2.91 µM [falling, partial curve, poor fit]

Question: Which Potency does the source give for `CCc1cc2c(-c3ccccc3)cc(=O)oc2cc1OCC(C)=O` here?
Answer: inconclusive: 29.1 µM [falling, single point]

Question: With `Cc1ccc(N(C)C(=O)c2ccc3c(Cl)c4c(nc3c2)CCC4)cc1C` as the compound, how does the Potency read?
Answer: inconclusive: 29.1 µM [falling, single point]

Question: With `C[n+]1c2n(c3ccccc31)N=C(c1ccccc1)CS2` as the compound, how does the Potency read?
Answer: inconclusive: 8.2 µM [falling, partial curve, poor fit]

Question: For `O=C(OCn1ncc(Br)c(Br)c1=O)c1ccc(F)cc1`, which Potency is on record?
Answer: inconclusive: 29.1 µM [falling, single point]

Question: Which Potency does the source give for `COc1cc(NC(=O)CCn2c(=O)oc3ccccc32)cc(OC)c1OC` here?
Answer: inconclusive: 8.2 µM [activator, partial curve, poor fit]

Question: With `CCN(CC)S(=O)(=O)c1ccc(N(C)C)c(NC(=O)CSCc2c(C)noc2C)c1` as the compound, how does the Potency read?
Answer: inconclusive: 32.6 µM [activator, single point]

Question: For `Nc1nonc1-c1nc2ccccc2n1Cc1ccccc1`, which Potency is on record?
Answer: inconclusive: 29.1 µM [falling, single point]

Question: Which Potency does the source give for `O=C(CSc1nnc(Cn2nnc3ccccc32)o1)N(Cc1ccc(Cl)cc1)c1ccccc1` here?
Answer: inconclusive: 25.9 µM [falling, partial curve, poor fit]

Question: Which Potency does the source give for `CNC(=O)CN1C(=O)CSc2ncccc21` here?
Answer: inactive

Question: With `Cc1c(N=C2C=CC(=O)c3ccccc32)c(=O)n(-c2ccccc2)n1C` as the compound, how does the Potency read?
Answer: inconclusive: 18.4 µM [falling, partial curve, poor fit]

Question: For `O=C(Nc1ccc(C(F)(F)F)cc1-c1ccccc1)c1ccccc1`, which Potency is on record?
Answer: inconclusive: 4.11 µM [activator, full curve, poor fit]
